Test results published in article PMC8905620.
No constants are given. Whether binding was seen depends on the method and setting.

The chains behind the UniProt entries cited, without tags or fusion partners. Where a name states a change or a piece, a line headed by the entry shows the natural chain unless it says otherwise. A line that says so, or that is headed by a name, gives the form on record, which may keep a tag or linker.
R957C Arkadia^927-994 RING domain (Q6ZNA4, form named): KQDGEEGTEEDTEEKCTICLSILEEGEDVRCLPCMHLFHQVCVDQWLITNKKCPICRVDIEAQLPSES

Molecular target: R957C Arkadia^927-994 RING domain (human) (UniProt Q6ZNA4)
Assay: 15N NMR relaxation (correlation time from R2/R1); 15N T1, T2 and heteronuclear NOE at 298 K, 600 and 700 MHz; isotropic tumbling time 4.69 ns; both purified

## R957C Arkadia^927-994 RING domain (from UniProt Q6ZNA4 927-994) (domain or fragment)
  binding: no binding
